# Values from PubChem BioAssay AID1159578 (Peter MacCallum Cancer Centre, 2015)
# Test: 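Knock-downs that alter how fast lymphatic endothelial cells migrate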 (primary screen)
# Cells: human lymphatic endothelial cells
# Reagent: siRNA pool against human genes, 40 nM
# Timing: 48 h after transfection
# Measurement: 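Cells stained with dye and imaged after a scratch; covered wound area and nuclei counted, duplicates averaged, migration set against mock wells and turned into a robust z-score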
# Direction: migration robust z-score: higher = faster migration into the scratch; migration relative to mock: higher = more scratch area covered than mock; nuclei per well: higher = more cells in the well
# Active means: 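Pools averaging fewer than 3300 nuclei are never called; remaining pools count as changed when migration robust z lies outside -2 to 2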
# Meaning of the calls: active = migration changed; inactive = no migration change, or too few cells
# Here is a random part of about 18,000 reagents. About 1,030 of them (5.7%) count as active. 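Inactive calls also include pools with fewer than 3300 nuclei, whose migration was not assessed.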 The raw values are shown without normalisation.
Gene,migration robust z-score,migration class with cell-count check,migration relative to mock,"nuclei per well, duplicate mean",Outcome
DSG1 (desmoglein 1),-2.91,migration z below -2; enough cells,0.12,3662,active
CFAP20 (cilia and flagella associated protein 20),-1.79,migration z between -2 and 2; enough cells,0.43,7383,inactive
GRIN3B (glutamate ionotropic receptor NMDA type subunit 3B),-0.68,migration z between -2 and 2; enough cells,0.68,5394,inactive
SNRPB (small nuclear ribonucleoprotein polypeptides B and B1),1.19,migration z between -2 and 2; enough cells,1.19,5663,inactive
GPR101 (G protein-coupled receptor 101),0.86,migration z between -2 and 2; enough cells,0.97,6372,inactive
TMPRSS12 (transmembrane serine protease 12),0.13,migration z between -2 and 2; enough cells,0.83,6057,inactive
GPRASP2 (G protein-coupled receptor associated sorting protein 2),1.34,migration z between -2 and 2; enough cells,1.23,6196,inactive
TTC29 (tetratricopeptide repeat domain 29),-1.28,migration z between -2 and 2; enough cells,0.55,6220,inactive
MRPS24 (mitochondrial ribosomal protein S24),-0.08,migration z between -2 and 2; enough cells,0.86,5504,inactive
IKZF2 (IKAROS family zinc finger 2),0.94,migration z between -2 and 2; enough cells,0.99,5523,inactive
SPATA2 (spermatogenesis associated 2),2.22,migration z above 2; enough cells,1.46,6616,active
KAZALD1 (Kazal type serine peptidase inhibitor domain 1),0.66,migration z between -2 and 2; enough cells,1.05,6350,inactive
PHYHIPL (phytanoyl-CoA 2-hydroxylase interacting protein like),-0.9,migration z between -2 and 2; enough cells,0.65,6448,inactive
DRD2 (dopamine receptor D2),0.2,migration z between -2 and 2; enough cells,0.84,5611,inactive
ASNS (asparagine synthetase (glutamine-hydrolyzing)),0.39,migration z between -2 and 2; enough cells,0.88,6004,inactive
PRSS53 (serine protease 53),0.4,migration z between -2 and 2; enough cells,0.99,4334,inactive
CSHL1 (chorionic somatomammotropin hormone like 1),-0.04,migration z between -2 and 2; enough cells,0.88,5748,inactive
CIMAP1C (ciliary microtubule associated protein 1C),0.45,migration z between -2 and 2; enough cells,1,4032,inactive
ARFGEF2 (ARF guanine nucleotide exchange factor 2),0.6,migration z between -2 and 2; enough cells,1.04,5872,inactive
GAL3ST2 (galactose-3-O-sulfotransferase 2),-1.4,migration z between -2 and 2; enough cells,0.54,3613,inactive
"FAM153CP (family with sequence similarity 153 member C, pseudogene)",-1,migration z between -2 and 2; enough cells,0.62,5977,inactive
EXOC7 (exocyst complex component 7),0.24,migration z between -2 and 2; enough cells,0.94,7429,inactive
SP1 (Sp1 transcription factor),-0.34,migration z between -2 and 2; enough cells,0.74,5321,inactive
CEL (carboxyl ester lipase),0.55,migration z between -2 and 2; enough cells,0.91,6196,inactive
PRKCQ (protein kinase C theta),-1.84,migration z between -2 and 2; enough cells,0.45,4430,inactive
NXPH1 (neurexophilin 1),-0.76,migration z between -2 and 2; enough cells,0.66,4910,inactive
PRG4 (proteoglycan 4),0.5,migration z between -2 and 2; enough cells,1.02,4948,inactive
FRK (fyn related Src family tyrosine kinase),0.52,migration z between -2 and 2; enough cells,0.9,4986,inactive
ABLIM1 (actin binding LIM protein 1),-2.46,migration z below -2; enough cells,0.25,4560,active
SHH (sonic hedgehog signaling molecule),-1.06,migration z between -2 and 2; enough cells,0.6,5360,inactive
TNFSF13B (TNF superfamily member 13b),-0.06,migration z between -2 and 2; enough cells,0.87,5994,inactive
EPHX1 (epoxide hydrolase 1),0.7,migration z between -2 and 2; enough cells,0.94,5326,inactive
SCAMP1,-0.78,migration z between -2 and 2; enough cells,0.66,6328,inactive
AUTS2 (activator of transcription and developmental regulator AUTS2),-0.04,migration z between -2 and 2; enough cells,0.88,5592,inactive
FSHR (follicle stimulating hormone receptor),0.68,migration z between -2 and 2; enough cells,0.94,6716,inactive
KRT25 (keratin 25),0.8,migration z between -2 and 2; enough cells,1.09,5820,inactive
RBM25 (RNA binding motif protein 25),0.87,migration z between -2 and 2; enough cells,1.11,6382,inactive
STXBP5 (syntaxin binding protein 5),0.14,migration z between -2 and 2; enough cells,0.92,5880,inactive
RADIL (Rap associating with DIL domain),-1.6,migration z between -2 and 2; enough cells,0.47,6334,inactive
TBCB (tubulin folding cofactor B),-2.59,migration z below -2; enough cells,0.2,4032,active
NRSN1 (neurensin 1),-1.21,migration z between -2 and 2; enough cells,0.57,6417,inactive
SYS1 (SYS1 golgi trafficking protein),-2.96,under 3300 nuclei; migration not judged,0.12,1496,inactive
ZNF501 (zinc finger protein 501),-0.99,migration z between -2 and 2; enough cells,0.62,5186,inactive
CTNNA2 (catenin alpha 2),0.88,migration z between -2 and 2; enough cells,1.12,5344,inactive
"NGRN (neugrin, neurite outgrowth associated)",0.54,migration z between -2 and 2; enough cells,1.02,5066,inactive
CLCN7 (Cl-/H+ antiporter 7),-3.19,migration z below -2; enough cells,0.19,3958,active
C1orf54 (chromosome 1 open reading frame 54),0.58,migration z between -2 and 2; enough cells,1.04,6098,inactive
CREBZF (CREB/ATF bZIP transcription factor),-3.45,under 3300 nuclei; migration not judged,0.14,3264,inactive
ALDH1A1 (aldehyde dehydrogenase 1 family member A1),-0.46,migration z between -2 and 2; enough cells,0.72,6468,inactive
KIF22 (kinesin family member 22),-1.22,migration z between -2 and 2; enough cells,0.57,4699,inactive
LRRC75B (leucine rich repeat containing 75B),-0.96,migration z between -2 and 2; enough cells,0.64,5444,inactive
OR5AN1 (olfactory receptor family 5 subfamily AN member 1),0.6,migration z between -2 and 2; enough cells,1.04,4744,inactive
GHR (growth hormone receptor),-0.46,migration z between -2 and 2; enough cells,0.72,5892,inactive
CCR9 (C-C motif chemokine receptor 9),1.69,migration z between -2 and 2; enough cells,1.13,4952,inactive
STC2 (stanniocalcin 2),3.34,migration z above 2; enough cells,1.75,5966,active
WDR48 (WD repeat domain 48),1.81,migration z between -2 and 2; enough cells,1.36,5960,inactive
"UQCR10 (ubiquinol-cytochrome c reductase, complex III subunit X)",-0.3,migration z between -2 and 2; enough cells,0.8,4978,inactive
